Measured values as given in patent publication EP1337551B1, “SUBSTANCE P ANALOGS FOR THE TREATMENT OF CANCER” (DABUR PHARMA LTD., priority 2000, dated 2002).
Where two headings read alike, the source gives them in different places. Part of at least one peptide drawing is inferred or uncertain, most often the ends. Residues, ends and D or L forms follow the SMILES beside them.

Test system: human colon adenocarcinoma (PTC) xenografts
Assay type: in vivo, Balb/c athymic nude mice
Conditions: 4.25 µg/100 µL intravenously twice a day; for Tumor volumes, Average: group average

SMILES: CC(C)C[C@H](NC(=O)[C@@H](Cc1c[nH]c2ccccc12)NC(=O)[C@H](Cc1ccccc1)NC(=O)[C@@H](Cc1c[nH]c2ccccc12)NC(=O)[C@H](CCC(N)=O)NC(=O)[C@@H](Cc1ccccc1)NC(=O)[C@@H]1CCCN1C(=O)[C@H](CCCCN)NC(=O)[C@@H]1CCCN1C(=O)[C@H](N)CCCNC(=N)N)C(=O)NC1(C(N)=O)CCCC1 [SEQ ID NO: 5, D-Arg-Pro-Lys-Pro-D-Phe-Gln-D-Trp-Phe-D-Trp-Leu-Ac5c-NH2] (HELM PEPTIDE1{[dR].P.K.P.[dF].Q.[dW].F.[dW].L.[O=C(C1(N[*:1])CCCC1)[*:2]].[am]}$$$$V2.0)
- Tumor volumes of individual tumor bearing animals (Day 0, animal I): 0 mm^3
- Tumor volumes of individual tumor bearing animals (Day 0, animal II): 0 mm^3
- Tumor volumes of individual tumor bearing animals (Day 0, animal III): 0 mm^3
- Tumor volumes, Average (Day 0): 0 mm^3
- Tumor volumes of individual tumor bearing animals (Day 6, animal I): 307.8 mm^3
- Tumor volumes of individual tumor bearing animals (Day 6, animal II): 520 mm^3
- Tumor volumes of individual tumor bearing animals (Day 6, animal III): 687.7 mm^3
- Tumor volumes, Average (Day 6): 505.1 mm^3
- Tumor volumes of individual tumor bearing animals (Day 8, animal I): 748.8 mm^3
- Tumor volumes of individual tumor bearing animals (Day 8, animal II): 1149.2 mm^3
- Tumor volumes of individual tumor bearing animals (Day 8, animal III): 1411.2 mm^3
- Tumor volumes, Average (Day 8): 1103.0 mm^3
- Tumor volumes of individual tumor bearing animals (Day 12, animal I): 2049 mm^3
- Tumor volumes of individual tumor bearing animals (Day 12, animal II): 3080.3 mm^3
- Tumor volumes of individual tumor bearing animals (Day 12, animal III): 3840.0 mm^3
- Tumor volumes, Average (Day 12): 2989.7 mm^3
- Tumor volumes of individual tumor bearing animals (Day 15, animal I): 3310 mm^3
- Tumor volumes of individual tumor bearing animals (Day 15, animal II): 3360 mm^3
- Tumor volumes of individual tumor bearing animals (Day 15, animal III): 4480.0 mm^3
- Tumor volumes, Average (Day 15): 3716.6 mm^3
- Tumor volumes of individual tumor bearing animals (Day 19, animal I): 3582 mm^3
- Tumor volumes of individual tumor bearing animals (Day 19, animal II): 1465.6 mm^3
- Tumor volumes of individual tumor bearing animals (Day 19, animal III): 3499.2 mm^3
- Tumor volumes, Average (Day 19): 2848.9 mm^3
- Tumor volumes of individual tumor bearing animals (Day 22, animal II): 100 mm^3
- Tumor volumes of individual tumor bearing animals (Day 22, animal III): 2560.0 mm^3
- Tumor volumes, Average (Day 22): 1330.0 mm^3

SMILES: CCCC(=O)N[C@H](CCCNC(=N)N)C(=O)N1CCC[C@H]1C(=O)N[C@@H](CCCCN)C(=O)N1CCC[C@H]1C(=O)N[C@H](Cc1ccccc1)C(=O)N[C@@H](CCC(N)=O)C(=O)N[C@H](Cc1c[nH]c2ccccc12)C(=O)N[C@@H](Cc1ccccc1)C(=O)N[C@H](Cc1c[nH]c2ccccc12)C(=O)N[C@@H](CC(C)C)C(=O)NC1(C(N)=O)CCCC1 [SEQ ID NO: 7, Butanoyl-D-Arg-Pro-Lys-Pro-D-Phe-Gln-D-Trp-Phe-D-Trp-Leu-Ac5c-NH2] (HELM PEPTIDE1{[CCCC(=O)[*:2]].[dR].P.K.P.[dF].Q.[dW].F.[dW].L.[O=C(C1(N[*:1])CCCC1)[*:2]].[am]}$$$$V2.0)
- Tumor volumes of individual tumor bearing animals (Day 0, animal I): 0 mm^3
- Tumor volumes of individual tumor bearing animals (Day 0, animal II): 0 mm^3
- Tumor volumes of individual tumor bearing animals (Day 0, animal III): 0 mm^3
- Tumor volumes, Average (Day 0): 0 mm^3
- Tumor volumes of individual tumor bearing animals (Day 6, animal I): 25.6 mm^3
- Tumor volumes of individual tumor bearing animals (Day 6, animal II): 66.6 mm^3
- Tumor volumes of individual tumor bearing animals (Day 6, animal III): 0 mm^3
- Tumor volumes, Average (Day 6): 30.7 mm^3
- Tumor volumes of individual tumor bearing animals (Day 8, animal I): 176.4 mm^3
- Tumor volumes of individual tumor bearing animals (Day 8, animal II): 260.1 mm^3
- Tumor volumes of individual tumor bearing animals (Day 8, animal III): 72 mm^3
- Tumor volumes, Average (Day 8): 169.5 mm^3
- Tumor volumes of individual tumor bearing animals (Day 12, animal I): 580.8 mm^3
- Tumor volumes of individual tumor bearing animals (Day 12, animal II): 1440 mm^3
- Tumor volumes of individual tumor bearing animals (Day 12, animal III): 281.6 mm^3
- Tumor volumes, Average (Day 12): 767.4 mm^3
- Tumor volumes of individual tumor bearing animals (Day 15, animal I): 946.4 mm^3
- Tumor volumes of individual tumor bearing animals (Day 15, animal II): 2427.6 mm^3
- Tumor volumes of individual tumor bearing animals (Day 15, animal III): 864 mm^3
- Tumor volumes, Average (Day 15): 1412.6 mm^3
- Tumor volumes of individual tumor bearing animals (Day 19, animal I): 1741 mm^3
- Tumor volumes of individual tumor bearing animals (Day 19, animal II): 2253 mm^3
- Tumor volumes of individual tumor bearing animals (Day 19, animal III): 1800 mm^3
- Tumor volumes, Average (Day 19): 1931.3 mm^3
- Tumor volumes of individual tumor bearing animals (Day 22, animal I): 2018 mm^3
- Tumor volumes of individual tumor bearing animals (Day 22, animal II): 3110 mm^3
- Tumor volumes of individual tumor bearing animals (Day 22, animal III): 0 mm^3
- Tumor volumes, Average (Day 22): 1709.3 mm^3

SMILES: CCCCCCCC(=O)N[C@H](CCCNC(=N)N)C(=O)N1CCC[C@H]1C(=O)N[C@@H](CCCCN)C(=O)N1CCC[C@H]1C(=O)N[C@H](Cc1ccccc1)C(=O)N[C@@H](CCC(N)=O)C(=O)N[C@H](Cc1c[nH]c2ccccc12)C(=O)N[C@@H](Cc1ccccc1)C(=O)N[C@H](Cc1c[nH]c2ccccc12)C(=O)N[C@@H](CC(C)C)C(=O)NC1(C(N)=O)CCCC1 [SEQ ID NO: 8, Octanoyl-D-Arg-Pro-Lys-Pro-D-Phe-Gln-D-Trp-Phe-D-Trp-Leu-Ac5c-NH2] (HELM PEPTIDE1{[CCCCCCCC(=O)[*:2]].[dR].P.K.P.[dF].Q.[dW].F.[dW].L.[O=C(C1(N[*:1])CCCC1)[*:2]].[am]}$$$$V2.0)
- Tumor volumes of individual tumor bearing animals (Day 0, animal I): 0 mm^3
- Tumor volumes of individual tumor bearing animals (Day 0, animal II): 0 mm^3
- Tumor volumes of individual tumor bearing animals (Day 0, animal III): 0 mm^3
- Tumor volumes, Average (Day 0): 0 mm^3
- Tumor volumes of individual tumor bearing animals (Day 6, animal I): 532.4 mm^3
- Tumor volumes of individual tumor bearing animals (Day 6, animal II): 291.6 mm^3
- Tumor volumes of individual tumor bearing animals (Day 6, animal III): 0 mm^3
- Tumor volumes, Average (Day 6): 274.6 mm^3
- Tumor volumes of individual tumor bearing animals (Day 8, animal I): 1020.6 mm^3
- Tumor volumes of individual tumor bearing animals (Day 8, animal II): 691.2 mm^3
- Tumor volumes of individual tumor bearing animals (Day 8, animal III): 0 mm^3
- Tumor volumes, Average (Day 8): 570.6 mm^3
- Tumor volumes of individual tumor bearing animals (Day 12, animal I): 2080.8 mm^3
- Tumor volumes of individual tumor bearing animals (Day 12, animal II): 1440 mm^3
- Tumor volumes of individual tumor bearing animals (Day 12, animal III): 156.8 mm^3
- Tumor volumes, Average (Day 12): 1225.8 mm^3
- Tumor volumes of individual tumor bearing animals (Day 15, animal I): 3880.8 mm^3
- Tumor volumes of individual tumor bearing animals (Day 15, animal II): 2592 mm^3
- Tumor volumes of individual tumor bearing animals (Day 15, animal III): 580.8 mm^3
- Tumor volumes, Average (Day 15): 2351.2 mm^3
- Tumor volumes of individual tumor bearing animals (Day 19, animal I): 3520.0 mm^3
- Tumor volumes of individual tumor bearing animals (Day 19, animal II): 1474.8 mm^3
- Tumor volumes of individual tumor bearing animals (Day 19, animal III): 1710 mm^3
- Tumor volumes, Average (Day 19): 2234.9 mm^3
- Tumor volumes of individual tumor bearing animals (Day 22, animal I): 2312.0 mm^3
- Tumor volumes of individual tumor bearing animals (Day 22, animal II): 36 mm^3
- Tumor volumes of individual tumor bearing animals (Day 22, animal III): 3177 mm^3
- Tumor volumes, Average (Day 22): 1841.6 mm^3
